Source: PMC10731709
These are yes or no findings as the source states them, for the method shown. In cells and extracts the contact can be indirect. Some entries that bind do so weakly or less than the wild type. For part of these data: Where a sequence is shown, tags or fusion partners need not be part of it. Values belong to the substance of their own block, whether it stands above or below them.

By UniProt entry, the sequences of proteins in these tests, tags left out.
UniProt Q0VBB0: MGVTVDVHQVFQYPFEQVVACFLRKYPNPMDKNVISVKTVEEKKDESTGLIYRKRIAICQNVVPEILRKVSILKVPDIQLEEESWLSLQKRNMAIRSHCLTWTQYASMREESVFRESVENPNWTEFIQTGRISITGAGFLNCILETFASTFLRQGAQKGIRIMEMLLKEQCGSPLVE
UniProt Q9D8Z2: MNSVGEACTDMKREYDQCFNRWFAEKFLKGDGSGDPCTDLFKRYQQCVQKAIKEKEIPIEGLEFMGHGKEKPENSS

Legend:
[1] = molecular target: T1, Flag-FBXL6 (F-box and leucine-rich repeat 6) (human) (UniProt Q8N531); assay: co-IP; Huh7 and Hep3B cells transfected with Flag-FBXL6 for 48 h and lysed; indicated antibodies and protein A/G PLUS-agarose added; endogenous KRAS detected
T1 sequence: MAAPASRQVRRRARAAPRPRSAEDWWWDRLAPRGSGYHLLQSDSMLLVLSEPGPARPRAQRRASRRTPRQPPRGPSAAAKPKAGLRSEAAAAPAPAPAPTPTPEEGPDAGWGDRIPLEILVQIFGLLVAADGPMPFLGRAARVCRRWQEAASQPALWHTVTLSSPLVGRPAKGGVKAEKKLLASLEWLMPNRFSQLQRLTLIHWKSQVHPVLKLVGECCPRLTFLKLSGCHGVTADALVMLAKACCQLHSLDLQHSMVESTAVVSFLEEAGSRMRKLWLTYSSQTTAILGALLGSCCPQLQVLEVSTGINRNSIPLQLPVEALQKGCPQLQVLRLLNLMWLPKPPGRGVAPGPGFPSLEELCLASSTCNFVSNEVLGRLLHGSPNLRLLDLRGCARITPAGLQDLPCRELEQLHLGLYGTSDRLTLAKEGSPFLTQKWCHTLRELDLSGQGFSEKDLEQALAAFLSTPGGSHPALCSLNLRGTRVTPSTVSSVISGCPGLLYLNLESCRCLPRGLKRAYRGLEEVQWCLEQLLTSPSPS

[2] = molecular target: T1, Flag-FBXL6 (F-box and leucine-rich repeat 6) (human); assay: co-IP; HA-KRAS and Flag-FBXL6 both ectopically expressed; lysate precipitated with anti-Flag antibody and protein A/G agarose, Western blot; cells not given
[3] = molecular target: Prelid2 (proteins of relevant evolutionary and lymphoid interest (PRELI) domain 2) (mouse) (UniProt Q0VBB0); assay: co-IP; Triap1 with Prelid2 (Fig. S4b); cells, bait and antibodies not stated in the text shown

binding [1]: binds
Substance: endogenous KRAS (from UniProt P01116 1-189)

binding [2]: binds
Substance: HA-KRAS (Kirsten rat sarcoma) (from UniProt P01116 1-189)

binding [3]: binds
Substance: Triap1 (from UniProt Q9D8Z2 1-76)
